This is an account of results in PubChem BioAssay AID463183 (Sanford-Burnham Center for Chemical Genomics, 2010).

This is one part of the list. These are further read-outs of the screen, such as a control signal, another cell line or another target. No call is given for them. The list favours compounds with an active or inconclusive main result.

A short description of the assay: hepatocyte lipid droplet accumulation inhibitors, confirmation, imaging, AML12 mouse hepatocytes, single concentration, high-content (AID 463183).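 Note: cells counted after overnight compound exposure.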 Particulars: BODIPY lipid droplet imaging, measured here: cell count, cytotoxicity, at 5.2 µM, droplets induced with 100 µM oleic acid.
On to `C=C(C)C1CC=C(C)/C(=N/Nc2ccccc2[N+](=O)[O-])C1` (configuration not stated), for which the cell count came to 1640 cells.
For `CN(C)CCCN(C(=O)c1ccc2ccccc2c1)c1nc2cc3c(cc2s1)OCO3`, the cell count was 1560 cells.
On to `O=C(Nc1ccc(Cl)cc1C(=O)NCc1cccnc1)c1ccc(Cl)cc1Cl`, for which the cell count came out at 1510 cells.
The figure for `O=[N+]([O-])c1cc2c(c(CSc3nnc(Nc4ccccc4)s3)c1)OCOC2` is 1660 cells.
Consider `CC(C)CCOc1ccc(C(=O)NCC(c2ccco2)N(C)C)cc1` (configuration not stated), for which the cell count was 1600 cells.
For `Cc1ccc(-n2nc3c(=O)n(C(C)C(=O)NCCC4=CCCCC4)nc(C)c3c2C)cc1` (configuration not stated), the cell count turned out to be 1650 cells.
Consider `CCc1ccccc1NS(=O)(=O)c1cc2c(cc1C)n(C)c(=O)c(=O)n2C`, for which the cell count was 1580 cells.
For the molecule `COc1ccc(CC(=O)Nn2c(-c3ccccc3)nc3ccccc3c2=O)cc1`, the cell count was found to be 1640 cells.
The figure for `CC(=O)Nc1ccc(-c2csc(NC(=O)Cc3cccc(F)c3)n2)cc1` is 1680 cells.
`COc1cc(NC(=O)c2ccco2)c(OC)cc1NC(=O)CCC(=O)Nc1cc(C)cc(C)c1` gave a cell count of 1550 cells.
The figure for `COc1ccc(OC)c(/C=C/C(=O)N(C)CC(=O)Nc2cc(C)ccc2C)c1` is 1590 cells.
On to `Cc1nn(Cc2ccc(F)cc2)c(C)c1NC(=O)C1c2ccccc2Oc2ccccc21`, for which the cell count worked out at 1550 cells.
`COc1ncccc1C(=O)NC1CCCc2c1cnn2-c1ccc(C)c(C)c1` (configuration not stated): the cell count turned out to be 1620 cells.
Under `CC1=C(C(=O)NC2CCCc3c2cnn3-c2cccc(C)c2C)OCCO1` (configuration not stated) stands 1630 cells; under `COc1ccc(NC(=O)Nc2cccc3ccccc23)c(OC)c1`, 1590 cells; under `COC(=O)/C(=C\c1ccc2c(c1)c1ccccc1n2C)NC(=O)c1ccccc1`, 1540 cells.
The figure for `C#CCOCCOCCOCCNc1nc(N2CCOCC2)nc(N2CCN(C(=O)[C@H]([C@@H](C)CC)n3cc([C@@H](N)Cc4ccc(O)cc4)nn3)CC2)n1` is 1630 cells; for `COc1ccc(C(=O)OC(C)C(=O)Nc2cc(C(F)(F)F)ccc2Cl)c(OC)c1OC` (configuration not stated) it is 1630 cells.
Under `COc1ccccc1CNS(=O)(=O)c1ccc2c(c1)CC(C)N2C(=O)C1CCC1` (configuration not stated) stands 1530 cells; under `CNc1nc(C)c(C(=O)c2ccc(Cl)cc2)s1`, 1570 cells.
In turn, `Cc1nn(-c2ccc([N+](=O)[O-])cc2)c2c1C(c1cccc(Br)c1)N1C(=N2)C(=O)Nc2ccccc21` (configuration not stated) showed a cell count of 1540 cells.
Under `c1cc2c3c(cccc3c1)NC1(CCC3(CC1)Nc1cccc4cccc(c14)N3)N2` stands 1480 cells.
